Measurements: publication PMC5412822
These are yes or no findings as the source states them, for the method shown. In cells and extracts the contact can be indirect. Some binding calls cover weakened binding; strength is not graded here.

Amino acid sequences for entries named in this document (tags omitted).
UniProt Q96EP0: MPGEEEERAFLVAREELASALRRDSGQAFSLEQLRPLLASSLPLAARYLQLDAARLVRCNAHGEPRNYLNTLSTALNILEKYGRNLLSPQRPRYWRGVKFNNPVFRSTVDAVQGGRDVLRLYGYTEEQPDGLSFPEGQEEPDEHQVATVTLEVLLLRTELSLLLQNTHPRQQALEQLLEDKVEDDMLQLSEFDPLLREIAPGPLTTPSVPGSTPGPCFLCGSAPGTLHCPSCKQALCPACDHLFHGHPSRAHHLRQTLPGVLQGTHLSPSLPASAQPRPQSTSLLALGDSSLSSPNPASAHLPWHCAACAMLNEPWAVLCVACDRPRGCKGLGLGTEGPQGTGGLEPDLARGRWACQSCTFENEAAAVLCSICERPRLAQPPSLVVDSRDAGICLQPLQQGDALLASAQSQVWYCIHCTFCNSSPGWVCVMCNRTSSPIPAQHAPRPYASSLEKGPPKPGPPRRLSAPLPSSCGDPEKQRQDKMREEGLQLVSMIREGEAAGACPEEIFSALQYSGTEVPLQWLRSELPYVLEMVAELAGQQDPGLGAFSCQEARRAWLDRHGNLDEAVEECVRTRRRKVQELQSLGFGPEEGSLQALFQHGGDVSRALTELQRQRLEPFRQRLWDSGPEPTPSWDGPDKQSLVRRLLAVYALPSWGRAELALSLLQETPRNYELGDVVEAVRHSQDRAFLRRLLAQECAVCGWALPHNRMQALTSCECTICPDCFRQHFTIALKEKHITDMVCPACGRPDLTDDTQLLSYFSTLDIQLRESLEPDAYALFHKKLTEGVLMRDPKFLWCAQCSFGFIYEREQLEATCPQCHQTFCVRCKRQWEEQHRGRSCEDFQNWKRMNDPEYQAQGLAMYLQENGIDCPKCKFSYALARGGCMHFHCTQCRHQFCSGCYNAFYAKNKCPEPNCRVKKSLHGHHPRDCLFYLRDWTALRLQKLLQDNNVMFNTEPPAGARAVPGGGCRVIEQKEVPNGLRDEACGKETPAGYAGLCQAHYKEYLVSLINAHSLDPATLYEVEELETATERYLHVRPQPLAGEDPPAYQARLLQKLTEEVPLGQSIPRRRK
UniProt Q14790: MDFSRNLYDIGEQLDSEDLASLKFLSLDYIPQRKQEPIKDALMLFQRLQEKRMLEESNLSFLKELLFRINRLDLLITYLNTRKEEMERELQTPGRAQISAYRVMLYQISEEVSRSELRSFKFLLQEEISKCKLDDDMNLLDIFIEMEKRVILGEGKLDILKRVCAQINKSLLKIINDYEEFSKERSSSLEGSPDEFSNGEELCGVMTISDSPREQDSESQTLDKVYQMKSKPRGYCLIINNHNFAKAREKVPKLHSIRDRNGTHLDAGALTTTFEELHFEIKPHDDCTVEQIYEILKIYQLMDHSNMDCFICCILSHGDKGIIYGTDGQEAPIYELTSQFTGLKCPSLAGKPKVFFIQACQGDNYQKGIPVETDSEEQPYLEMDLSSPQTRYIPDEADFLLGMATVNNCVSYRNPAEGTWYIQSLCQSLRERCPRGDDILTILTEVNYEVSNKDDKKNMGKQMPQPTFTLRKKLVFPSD
UniProt Q13158: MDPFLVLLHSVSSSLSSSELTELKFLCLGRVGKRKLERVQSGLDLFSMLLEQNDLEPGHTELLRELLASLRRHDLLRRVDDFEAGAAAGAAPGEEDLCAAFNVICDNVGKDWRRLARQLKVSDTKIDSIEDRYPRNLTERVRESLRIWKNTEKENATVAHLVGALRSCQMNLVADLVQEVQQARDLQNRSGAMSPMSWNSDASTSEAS
UniProt Q9BYM8: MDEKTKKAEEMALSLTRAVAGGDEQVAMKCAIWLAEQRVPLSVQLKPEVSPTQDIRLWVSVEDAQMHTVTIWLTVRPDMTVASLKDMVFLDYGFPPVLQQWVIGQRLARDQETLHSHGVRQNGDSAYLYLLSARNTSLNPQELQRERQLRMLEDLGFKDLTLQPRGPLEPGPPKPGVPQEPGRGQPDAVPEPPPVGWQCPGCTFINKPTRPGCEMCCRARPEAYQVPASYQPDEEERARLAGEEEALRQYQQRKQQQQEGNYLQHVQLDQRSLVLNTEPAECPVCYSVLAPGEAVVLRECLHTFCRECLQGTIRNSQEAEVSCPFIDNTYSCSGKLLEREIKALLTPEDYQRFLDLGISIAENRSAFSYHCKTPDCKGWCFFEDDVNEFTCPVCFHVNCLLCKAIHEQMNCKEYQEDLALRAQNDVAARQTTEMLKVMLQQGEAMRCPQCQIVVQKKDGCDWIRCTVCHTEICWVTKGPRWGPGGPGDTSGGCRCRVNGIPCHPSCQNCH

Assays:
HOIP‐TAP = HOIP‐TAP (UniProt Q96EP0); experiment: co-IP; HOIP KO K562 or HeLa cells reconstituted with HOIP-TAP (or empty vector), pre-treated with zVAD for 1 h, stimulated with iz-TRAIL (1 μg/ml or 500 ng/ml) for 1 h; HOIP-TAP precipitated with anti-FLAG beads, Western blot
[1] = target: caspase‐8 (human (endogenous in HeLa, A549 and K562)) (UniProt Q14790); experiment: co-IP; TRAIL complex II: HeLa cells stimulated with FLAG-lz-TRAIL (500 ng/ml); complex I-depleted lysates incubated overnight at 4°C with protein G beads coupled with anti-caspase-8 antibody (clone C20), Western blot

For FADD (from UniProt Q13158 1-208), the binding (HOIP‐TAP) was “binds”.

In the case of HOIL‐1 (from UniProt Q9BYM8 1-510), the binding [1] is reported as “binds”.

For “HOIP (from UniProt Q96EP0 1-1072) (enzyme)”, the binding [1] was “binds”.

With “caspase‐8 (from UniProt Q14790 1-479) (enzyme)” the binding (HOIP‐TAP) was “binds”.
